{
  "source": "patent US5128376A",
  "about": "“Method for percutaneously administering physiologically active agents using an adjuvant a solvent and a diol moderator” (priority 1990, dated 1992)",
  "origin": "cited, not measured here",
  "settings": "therapeutic oral doses in man; Kaplan et al., J. Pharm. Sci. 1973; cited from earlier work",
  "data": [
    {"smiles": "CN1C(=O)CN=C(c2ccccc2)c2cc(Cl)ccc21", "note": "[diazepam, 7-Chloro-1,3-dihydro-1-methyl-5-phenyl-2H-1,4-benzodiazepine-2-one]", "values": [
      {"measurement": "blood levels", "result": "approximately 100 ng/ml plasma"}
    ]}
  ]
}
